Data taken from PMC8313941.
These are yes or no findings as the source states them, for the method shown. Binding seen in cells or lysates may run through a third protein. Some results given as binding are weak or reduced against the parent protein; the word gives no strength. Tags and fused reporters may be left off the sequences shown.

Sequences of proteins named here, by UniProt entry; tags and fusion partners are left off.
UniProt O60244: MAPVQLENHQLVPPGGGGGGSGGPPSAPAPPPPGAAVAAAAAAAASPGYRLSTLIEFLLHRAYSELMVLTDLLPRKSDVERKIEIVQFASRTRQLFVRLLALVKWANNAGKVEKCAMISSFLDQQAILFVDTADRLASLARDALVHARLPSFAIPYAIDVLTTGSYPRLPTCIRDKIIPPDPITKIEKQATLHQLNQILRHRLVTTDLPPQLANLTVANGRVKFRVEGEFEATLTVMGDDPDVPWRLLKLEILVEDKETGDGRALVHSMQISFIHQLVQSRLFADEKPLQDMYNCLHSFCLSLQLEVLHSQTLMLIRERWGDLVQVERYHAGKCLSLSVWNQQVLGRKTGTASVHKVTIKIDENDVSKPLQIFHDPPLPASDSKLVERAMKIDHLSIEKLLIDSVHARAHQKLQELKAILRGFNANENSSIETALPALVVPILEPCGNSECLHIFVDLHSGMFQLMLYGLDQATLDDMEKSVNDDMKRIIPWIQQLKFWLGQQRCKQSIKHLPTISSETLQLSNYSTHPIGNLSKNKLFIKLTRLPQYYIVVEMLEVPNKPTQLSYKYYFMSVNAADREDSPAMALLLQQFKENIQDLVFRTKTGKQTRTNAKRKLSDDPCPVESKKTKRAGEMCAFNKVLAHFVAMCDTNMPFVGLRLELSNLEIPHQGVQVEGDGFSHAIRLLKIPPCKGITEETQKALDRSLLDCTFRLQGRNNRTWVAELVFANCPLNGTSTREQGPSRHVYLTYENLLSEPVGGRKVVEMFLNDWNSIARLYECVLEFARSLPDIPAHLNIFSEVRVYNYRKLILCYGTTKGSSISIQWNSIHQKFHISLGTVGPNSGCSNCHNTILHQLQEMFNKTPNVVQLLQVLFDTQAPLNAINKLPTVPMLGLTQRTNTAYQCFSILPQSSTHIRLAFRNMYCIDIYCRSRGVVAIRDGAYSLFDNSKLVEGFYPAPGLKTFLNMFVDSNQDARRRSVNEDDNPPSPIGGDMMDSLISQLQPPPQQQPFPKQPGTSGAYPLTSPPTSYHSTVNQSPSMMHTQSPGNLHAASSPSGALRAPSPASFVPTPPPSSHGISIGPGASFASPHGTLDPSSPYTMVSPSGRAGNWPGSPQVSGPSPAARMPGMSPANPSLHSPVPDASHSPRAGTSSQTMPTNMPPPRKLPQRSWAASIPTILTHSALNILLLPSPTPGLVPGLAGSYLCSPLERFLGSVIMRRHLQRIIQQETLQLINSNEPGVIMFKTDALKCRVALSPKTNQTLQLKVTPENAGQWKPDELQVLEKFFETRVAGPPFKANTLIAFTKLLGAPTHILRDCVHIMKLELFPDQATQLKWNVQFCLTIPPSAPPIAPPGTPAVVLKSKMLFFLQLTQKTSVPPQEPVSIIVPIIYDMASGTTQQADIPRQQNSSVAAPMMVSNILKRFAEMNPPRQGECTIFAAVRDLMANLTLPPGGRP

T1: FLAG-tagged MED17 (human) (UniProt Q9NVC6)
T1 sequence: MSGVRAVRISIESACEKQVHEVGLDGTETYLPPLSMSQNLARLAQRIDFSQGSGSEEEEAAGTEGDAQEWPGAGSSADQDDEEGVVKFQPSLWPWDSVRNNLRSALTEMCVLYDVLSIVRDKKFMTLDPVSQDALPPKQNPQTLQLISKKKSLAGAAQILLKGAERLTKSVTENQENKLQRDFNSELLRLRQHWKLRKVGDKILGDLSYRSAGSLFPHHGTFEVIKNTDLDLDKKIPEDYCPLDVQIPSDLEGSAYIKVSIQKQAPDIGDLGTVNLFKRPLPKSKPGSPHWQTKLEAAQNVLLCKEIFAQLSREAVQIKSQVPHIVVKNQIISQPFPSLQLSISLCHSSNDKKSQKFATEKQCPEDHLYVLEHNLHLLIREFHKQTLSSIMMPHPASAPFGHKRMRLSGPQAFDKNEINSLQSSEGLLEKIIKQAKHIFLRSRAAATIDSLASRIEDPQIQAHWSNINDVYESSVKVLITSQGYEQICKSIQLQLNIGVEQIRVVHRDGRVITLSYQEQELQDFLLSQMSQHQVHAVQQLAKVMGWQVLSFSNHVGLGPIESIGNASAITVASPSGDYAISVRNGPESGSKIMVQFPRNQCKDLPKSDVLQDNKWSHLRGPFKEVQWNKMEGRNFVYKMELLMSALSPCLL

B1: HA-MED7 (protein, UniProt O43513 1-233)
chain: MGEPQQVSALPPPPMQYIKEYTDENIQEGLAPKPPPPIKDSYMMFGNQFQCDDLIIRPLESQGIERLHPMQFDHKKELRKLNMSILINFLDLLDILIRSPGSIKREEKLEDLKLLFVHVHHLINEYRPHQARETLRVMMEVQKRQRLETAERFQKHLERVIEMIQNCLASLPDDLPHSEAGMRVKTEPMDADDSNNCTGQNEHQRENSGHRRDQIIEKDAALCVLIDEMNERP
B2: MED9 (protein, UniProt Q9NWA0 1-146)
chain: MASAGVAAGRQAEDVLPPTSDQPLPDTKPLPPPQPPPVPAPQPQQSPAPRPQSPARAREEENYSFLPLVHNIIKCMDKDSPEVHQDLNALKSKFQEMRKLISTMPGIHLSPEQQQQQLQSLREQVRTKNELLQKYKSLCMFEIPKE
B3: His-MED10 (protein, UniProt Q9BTT4 1-135)
chain: MAEKFDHLEEHLEKFVENIRQLGIIVSDFQPSSQAGLNQKLNFIVTGLQDIDKCRQQLHDITVPLEVFEYIDQGRNPQLYTKECLERALAKNEQVKGKIDTMKKFKSLLIQELSKVFPEDMAKYRSIRGEDHPPS
B4: Myc-MED21 (protein, UniProt Q13503 1-144)
chain: MADRLTQLQDAVNSLADQFCNAIGVLQQCGPPASFNNIQTAINKDQPANPTEEYAQLFAALIARTAKDIDVLIDSLPSEESTAALQAASLYKLEEENHEAATCLEDVVYRGDMLLEKIQSALADIAQSQLKTRSGTHSQSLPDS
B5: MED31 (protein, UniProt Q9Y3C7 1-131)
chain: MAAAVAMETDDAGNRLRFQLELEFVQCLANPNYLNFLAQRGYFKDKAFVNYLKYLLYWKDPEYAKYLKYPQCLHMLELLQYEHFRKELVNAQCAKFIDEQQILHWQHYSRKRMRLQQALAEQQQQNNTSGK
B6: MED6 (protein, UniProt O75586 1-246)
chain: MAAVDIRDNLLGISWVDSSWIPILNSGSVLDYFSERSNPFYDRTCNNEVVKMQRLTLEHLNQMVGIEYILLHAQEPILFIIRKQQRQSPAQVIPLADYYIIAGVIYQAPDLGSVINSRVLTAVHGIQSAFDEAMSYCRYHPSKGYWWHFKDHEEQDKVRPKAKRKEEPSSIFQRQRVDALLLDLRQKFPPKFVQLKPGEKPVPVDQTKKEAEPIPETVKPEEKETTKNVQQTVSAKGPPEKRMRLQ
B7: MED8 (protein, UniProt Q96G25 1-268)
chain: MQREEKQLEASLDALLSQVADLKNSLGSFICKLENEYGRLTWPSVLDSFALLSGQLNTLNKVLKHEKTPLFRNQVIIPLVLSPDRDEDLMRQTEGRVPVFSHEVVPDHLRTKPDPEVEEQEKQLTTDAARIGADAAQKQIQSLNKMCSNLLEKISKEERESESGGLRPNKQTFNPTDTNALVAAVAFGKGLSNWRPSGSSGPGQAGQPGAGTILAGTSGLQQVQMAGAPSQQQPMLSGVQMAQAGQPGKMPSGIKTNIKSASMHPYQR
B8: MED11 (protein, UniProt Q9P086 1-117)
chain: MATYSLANERLRALEDIEREIGAILQNAGTVILELSKEKTNERLLDRQAAAFTASVQHVEAELSAQIRYLTQVATGQPHEGSSYSSRKDCQMALKRVDYARLKLSDVARTCEQMLEN
B9: MED18 (protein, UniProt Q9BUE0 1-208)
chain: MEAPPVTMMPVTGGTINMMEYLLQGSVLDHSLESLIHRLRGLCDNMEPETFLDHEMVFLLKGQQASPFVLRARRSMDRAGAPWHLRYLGQPEMGDKNRHALVRNCVDIATSENLTDFLMEMGFRMDHEFVAKGHLFRKGIMKIMVYKIFRILVPGNTDSTEALSLSYLVELSVVAPAGQDMVSDDMKNFAEQLKPLVHLEKIDPKRLM
B10: MED20 (protein, UniProt Q9H944 1-212)
chain: MGVTCVSQMPVAEGKSVQQTVELLTRKLEMLGAEKQGTFCVDCETYHTAASTLGSQGQTGKLMYVMHNSEYPLSCFALFENGPCLIADTNFDVLMVKLKGFFQSAKASKIETRGTRYQYCDFLVKVGTVTMGPSARGISVEVEYGPCVVASDCWSLLLEFLQSFLGSHTPGAPAVFGNRHDAVYGPADTMVQYMELFNKIRKQQQVPVAGIR
B11: MED22 (protein, UniProt Q15528 1-200)
chain: MAQQRALPQSKETLLQSYNKRLKDDIKSIMDNFTEIIKTAKIEDETQVSRATQGEQDNYEMHVRAANIVRAGESLMKLVSDLKQFLILNDFPSVNEAIDQRNQQLRTLQEECDRKLITLRDEISIDLYELEEEYYSSSSSLCEANDLPLCEAYGRLDLDTDSADGLSAPLLASPEPSAGPLQVAAPAHSHAGGPGPTEHA
B12: MED30 (protein, UniProt Q96HR3 1-178)
chain: MSTPPLAASGMAPGPFAGPQAQQAAREVNTASLCRIGQETVQDIVYRTMEIFQLLRNMQLPNGVTYHTGTYQDRLTKLQDNLRQLSVLFRKLRLVYDKCNENCGGMDPIPVEQLIPYVEEDGSKNDDRAGPPRFASEERREIAEVNKKLKQKNQQLKQIMDQLRNLIWDINAMLAMRN
B13: MED4 (protein, UniProt Q9NPJ6 1-270)
chain: MAASSSGEKEKERLGGGLGVAGGNSTRERLLSALEDLEVLSRELIEMLAISRNQKLLQAGEENQVLELLIHRDGEFQELMKLALNQGKIHHEMQVLEKEVEKRDSDIQQLQKQLKEAEQILATAVYQAKEKLKSIEKARKGAISSEEIIKYAHRISASNAVCAPLTWVPGDPRRPYPTDLEMRSGLLGQMNNPSTNGVNGHLPGDALAAGRLPDVLAPQYPWQSNDMSMNMLPPNHSSDFLLEPPGHNKENEDDVEIMSTDSSSSSSESD

These molecules were tested against T1, FLAG-tagged MED17 (human) (assay: co-IP + SEC; Hi5 cell extract (BC500) on anti-FLAG M2 agarose, washed with BC300, eluted with 0.5 mg/mL FLAG peptide, then Superose 6 gel filtration; Coomassie or silver stain).

binding, binds:
MED14 (from UniProt O60244 1-1454), B1, B2, B3, B4, B5, B6, B7, B8, B9, B10, B11, B12, B13
